Laboratory results: PubChem BioAssay AID1259254 (NCATS, 2017)
Shown is a random part of about 59,000 deposited reagents. Of all reagents, about 1,550 (2.6%) were called active. 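G2 share is only a proxy for re-replication; each gene was hit by three separate siRNAs, and active genes were retested.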 Entries without a mark were called inactive. The numbers tell different reagents against one gene apart. Not all columns of the deposit are shown. No sequences are given here. Not given: the amount of reagent.

Purpose: 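Finding genes that stop cells copying their DNA twice in one cycle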 (primary screen)
Cell system: human HCT116 colorectal cancer cells
Reagents: single siRNA against human genes
Timing: 3 days
Read-out: 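Nuclei stained with Hoechst and imaged; cell-cycle phase assigned by DNA content; G2 share scaled per plate, non-targeting siRNA 0%, GMNN siRNA 100%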
Direction: G2 robust z-score: higher = more G2 cells, more excess DNA replication
Rule for the call: 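Active siRNAs have a G2 robust z of 5 or more median absolute deviations over the median, which in these data means about 38% or higher of GMNN control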

Which result is listed for PABPC4L (GeneID 132430) #1?
G2 robust z-score: 0.322

For PABPC4L (GeneID 132430) #2, what does the deposit list?
G2 robust z-score: 0.093

With PABPC4L (GeneID 132430) #3, what does the deposit list?
G2 robust z-score: -0.831

For TMPRSS12 (GeneID 283471) #1, how do the results read?
G2 robust z-score: 1.59

For TMPRSS12 (GeneID 283471) #2, what does the deposit list?
G2 robust z-score: 0.0721

For TMPRSS12 (GeneID 283471) #3, what does the deposit list?
G2 robust z-score: -0.386

What did the screen give for RORB (GeneID 6096) #1?
G2 robust z-score: -1.35

How did the screen score RORB (GeneID 6096) #2?
G2 robust z-score: -1.24

For RORB (GeneID 6096) #3, how do the results read?
G2 robust z-score: 2

For DHX40 (GeneID 79665) #1, how do the results read?
G2 robust z-score: 0.28

What did the screen give for DHX40 (GeneID 79665) #2?
G2 robust z-score: 0.431

What did the screen give for DHX40 (GeneID 79665) #3?
G2 robust z-score: -0.194

What is on record for CDC27P6 (GeneID 649620) #1?
G2 robust z-score: -0.0973

For CDC27P6 (GeneID 649620) #2, what was measured?
G2 robust z-score: 1.41

With CDC27P6 (GeneID 649620) #3, what does the deposit list?
G2 robust z-score: 0.516

For IQCC (GeneID 55721) #1, what does the deposit list?
G2 robust z-score: -0.805

How did the screen score IQCC (GeneID 55721) #2?
G2 robust z-score: 0.279

What is on record for IQCC (GeneID 55721) #3?
G2 robust z-score: 0.974
